Assay results published in paper PMC7819943, “Rice protein-binding microarrays: a tool to detect cis-acting elements near promoter regions in rice”.
The other results are listed elsewhere or left out.

These sequences were tested against T1, OsSMF1 (Oryza sativa, UniProt Q6ZLB0 1-436) (assay: protein-binding microarray (RPBM); PBS, 2% BSA, 51.3 ng/ul salmon testes DNA, 50 uM zinc acetate, 200 nM TF, 25 C, 1 h; high values mean tight binding). Settings: protein: recombinant; tags: N-terminal polyhistidine and DsRed monomer fusion (pET32a); chain copies: 2; label: CyDye5-dUTP incorporated in the synthesized complementary strand; 3' TTTTT single-stranded linker to array surface; dsDNA, one strand shown.
T1 sequence: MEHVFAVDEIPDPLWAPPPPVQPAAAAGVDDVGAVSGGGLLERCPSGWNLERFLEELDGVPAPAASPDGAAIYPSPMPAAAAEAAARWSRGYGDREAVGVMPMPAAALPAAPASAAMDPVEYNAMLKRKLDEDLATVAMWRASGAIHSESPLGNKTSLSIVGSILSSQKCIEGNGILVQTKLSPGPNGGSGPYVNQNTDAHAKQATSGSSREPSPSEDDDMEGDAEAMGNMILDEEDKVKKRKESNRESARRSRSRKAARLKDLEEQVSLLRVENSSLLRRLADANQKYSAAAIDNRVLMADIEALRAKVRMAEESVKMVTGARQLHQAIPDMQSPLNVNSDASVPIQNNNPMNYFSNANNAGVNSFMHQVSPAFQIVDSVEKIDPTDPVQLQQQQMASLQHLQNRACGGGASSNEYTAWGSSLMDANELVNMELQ
How it was run: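 Transcription factors, each fused N-terminally to a polyhistidine tag and DsRed, were expressed in E. coli BL21-CodonPlus and purified on Ni–NTA. A custom Agilent array was made double-stranded by primer extension with Cy5-dUTP and blocked with 2% BSA. It was incubated with 200 nM protein in PBS, 2% BSA, salmon testes DNA and 50 µM zinc acetate at 25 °C for 1 h, then washed. The binding signal is per-feature fluorescence intensity (arbitrary units) read on an Axon 4000B scanner.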
For “TTGGATTCGGAGCTATGTCAAACTGATTTGATGTGAATTTCGGAGTCACCTAGTGCAG”, the binding signal was 3320 fluorescence intensity (a.u.). For “TGGGTGTAATTGTTTCCTCGATTTCGCTGGCATGTACTTTCGGAGTCACCTAGTGCAG”, the binding signal was 3780 fluorescence intensity (a.u.). In the case of “CGTTTTCCCAGGTTTACACGTGGCACAAGTGATTGGGACGCGGAGTCACCTAGTGCAG”, the binding signal is reported as 16700 fluorescence intensity (a.u.). In the case of “TTGGCTATACTATTGAACTTGCTCTAAAACGTGACTAGGGCGGAGTCACCTAGTGCAG”, the binding signal is reported as 3780 fluorescence intensity (a.u.). “CTATCTCCCCAAACCTGCCATGTAATCTTACCTCTTTGCTCGGAGTCACCTAGTGCAG” was tested, and the binding signal was 4020 fluorescence intensity (a.u.). In the case of “TGGTGCGCCGCGCTCCAGCGCGGCCGTGTTCGTGAGGTCACGGAGTCACCTAGTGCAG”, the binding signal is reported as 3640 fluorescence intensity (a.u.). In the case of “TAAAACACACCTTAATAGACAACCAGTCAGTTGATCAGCGCGGAGTCACCTAGTGCAG”, the binding signal is reported as 3400 fluorescence intensity (a.u.). For “TCACGCTCTCAACGCTGCTGTGTCACGTCACGTCACGCGCCGGAGTCACCTAGTGCAG”, the binding signal was 16400 fluorescence intensity (a.u.). In the case of “CTATCGAATGTGACGCATATAACAATCAACAGAACACCGTCGGAGTCACCTAGTGCAG”, the binding signal is reported as 3250 fluorescence intensity (a.u.). “ACAGCACCGCTCACACGCGCCACGCATGCCGCTCCCATTCCGGAGTCACCTAGTGCAG” was tested, and the binding signal was 8200 fluorescence intensity (a.u.). With “GAGAATTCTCCACGAAAAGAGGAGAACGAACCACATCAAACGGAGTCACCTAGTGCAG” the binding signal was 3380 fluorescence intensity (a.u.). “GCGCGGCGAGTCTGGTCGACTCATCGCCGATCGATTGACCCGGAGTCACCTAGTGCAG” was tested, and the binding signal was 3760 fluorescence intensity (a.u.). In the case of “ACCTGGCAGCGGTGACTCCTCCTCGTCTACTCCCTCGCCGCGGAGTCACCTAGTGCAG”, the binding signal is reported as 3210 fluorescence intensity (a.u.). In the case of “GCACGGCACGGCTACTCGTGCCGTGCCGGCACGGCCCGTTCGGAGTCACCTAGTGCAG”, the binding signal is reported as 3670 fluorescence intensity (a.u.). “TGCGCAGGGGTGGAGGGGATCGTGAGCAATGCGGACAATTCGGAGTCACCTAGTGCAG” was tested, and the binding signal was 5070 fluorescence intensity (a.u.). “AGCGAGAAGGTAGAAACATCGACAGTAGCACTTGGCAGTGCGGAGTCACCTAGTGCAG” was tested, and the binding signal was 3280 fluorescence intensity (a.u.). With “TTCCTTATACGTGGAATGCCATACGTGGTTGTGATTTCTCCGGAGTCACCTAGTGCAG” the binding signal was 5440 fluorescence intensity (a.u.). With “TTTGTTTTGTATTTGGTAACAGTGAGTCATTTAGAAATTGCGGAGTCACCTAGTGCAG” the binding signal was 6190 fluorescence intensity (a.u.). With “AGCACCACGGTCAATGCCACGTATGTGCCACGTCATCCAACGGAGTCACCTAGTGCAG” the binding signal was 46600 fluorescence intensity (a.u.). For “TTCCCTCACGTCCAAACCAAACCAGCTCACAGAATCGCACCGGAGTCACCTAGTGCAG”, the binding signal was 18800 fluorescence intensity (a.u.). With “AAGACGAATGGTCTTATATGTCAATGACGTCATATATTAACGGAGTCACCTAGTGCAG” the binding signal was 9420 fluorescence intensity (a.u.). In the case of “AAGAAGAGGGGATGAGGTCTCCAGCGCCTAGTCGCAGGGTCGGAGTCACCTAGTGCAG”, the binding signal is reported as 3310 fluorescence intensity (a.u.). In the case of “TCACACATTCTCCCATGCTGTACTAATTGTATTATGATAACGGAGTCACCTAGTGCAG”, the binding signal is reported as 3200 fluorescence intensity (a.u.). “TCAACCTCAAGCACATGGTTTGTTGCAAACTACTAAAATACGGAGTCACCTAGTGCAG” was tested, and the binding signal was 34600 fluorescence intensity (a.u.). “CCTTCTTAACAGTCTGTGAAGCTCTGCCATCTCACCGTCTCGGAGTCACCTAGTGCAG” was tested, and the binding signal was 3820 fluorescence intensity (a.u.). For “CAAATGATGGTCTACACGTAAGCCTGAAAGATTGTCGGTGCGGAGTCACCTAGTGCAG”, the binding signal was 4520 fluorescence intensity (a.u.). In the case of “AAACTCCAGAAGCTTTTCCACTTCCTAGTGACGTGGCAATCGGAGTCACCTAGTGCAG”, the binding signal is reported as 26700 fluorescence intensity (a.u.). For “TATTTAATTACCTCACGCACATTCTTTTCTCAGCAAATCACGGAGTCACCTAGTGCAG”, the binding signal was 3620 fluorescence intensity (a.u.). For “CCTCGACAGATTCCATGAGCGCACTAATCCCAGTGCTCTGCGGAGTCACCTAGTGCAG”, the binding signal was 3180 fluorescence intensity (a.u.). With “ACGGCATGAAATCATGGTGCTGCTGCTCCTGCAGCGCGGCCGGAGTCACCTAGTGCAG” the binding signal was 20300 fluorescence intensity (a.u.). “TACCCGCAGCCACCCGCCGCTGACGGTCAACCCACCTTCGCGGAGTCACCTAGTGCAG” was tested, and the binding signal was 3790 fluorescence intensity (a.u.). With “GTAAAGTTTTAACGTGTTACATCGGGTATTATATAGTGTGCGGAGTCACCTAGTGCAG” the binding signal was 3660 fluorescence intensity (a.u.). For “TTCTTTCTGTGCATTCCAGGTCGGATTTCGGGCACTTCGCCGGAGTCACCTAGTGCAG”, the binding signal was 3550 fluorescence intensity (a.u.). With “GGGCAGGTGGGGAGGAGAGCGGGATGAGGTGGAAGGGGTCCGGAGTCACCTAGTGCAG” the binding signal was 6070 fluorescence intensity (a.u.). For “AAGATGCTGACCTGCCAAGTAAACTATACAACAATTCCCTCGGAGTCACCTAGTGCAG”, the binding signal was 3270 fluorescence intensity (a.u.). For “CGCAGAGGCTGCTGATGTAATCACGTTCCATATGAAAAGGCGGAGTCACCTAGTGCAG”, the binding signal was 4070 fluorescence intensity (a.u.). For “CTTGTATCTAACTTGCAGTTACATTTAGTTCCAGTGCACTCGGAGTCACCTAGTGCAG”, the binding signal was 4620 fluorescence intensity (a.u.). With “ATATTCAATATATAATTCATCTGCCGGATTAATTGCAATGCGGAGTCACCTAGTGCAG” the binding signal was 3430 fluorescence intensity (a.u.). For “TAATCACTCGATCTCTCCCAGATGCTTTATGCAAAGCCTACGGAGTCACCTAGTGCAG”, the binding signal was 21600 fluorescence intensity (a.u.). In the case of “AGCTAGCTAGCCACGCCATCCCTTTCTCCTCCTCCTTCTTCGGAGTCACCTAGTGCAG”, the binding signal is reported as 5860 fluorescence intensity (a.u.). With “CCGGCGCCTTCTCGCGCGGCGGAATCAGGCCGCCGCGCTACGGAGTCACCTAGTGCAG” the binding signal was 10100 fluorescence intensity (a.u.). In the case of “ATCGCAACAGAGTGGTTCGATTCCACCTCAGAACGACCTACGGAGTCACCTAGTGCAG”, the binding signal is reported as 3660 fluorescence intensity (a.u.).
